Reference: patent US6555328
These are yes or no findings as the source states them, for the method shown. For part of these data: In cells and extracts the contact can be indirect. Some entries that bind do so weakly or less than the wild type.

By UniProt entry, the sequences of proteins in these tests, tags left out. Where a name states a change or a piece, a line headed by the entry shows the natural chain unless it says otherwise. Chains listed by the source or under a name are the forms on record and can include a tag or linker. Residues count along the entry.
UniProt O15534, residues 1-1289: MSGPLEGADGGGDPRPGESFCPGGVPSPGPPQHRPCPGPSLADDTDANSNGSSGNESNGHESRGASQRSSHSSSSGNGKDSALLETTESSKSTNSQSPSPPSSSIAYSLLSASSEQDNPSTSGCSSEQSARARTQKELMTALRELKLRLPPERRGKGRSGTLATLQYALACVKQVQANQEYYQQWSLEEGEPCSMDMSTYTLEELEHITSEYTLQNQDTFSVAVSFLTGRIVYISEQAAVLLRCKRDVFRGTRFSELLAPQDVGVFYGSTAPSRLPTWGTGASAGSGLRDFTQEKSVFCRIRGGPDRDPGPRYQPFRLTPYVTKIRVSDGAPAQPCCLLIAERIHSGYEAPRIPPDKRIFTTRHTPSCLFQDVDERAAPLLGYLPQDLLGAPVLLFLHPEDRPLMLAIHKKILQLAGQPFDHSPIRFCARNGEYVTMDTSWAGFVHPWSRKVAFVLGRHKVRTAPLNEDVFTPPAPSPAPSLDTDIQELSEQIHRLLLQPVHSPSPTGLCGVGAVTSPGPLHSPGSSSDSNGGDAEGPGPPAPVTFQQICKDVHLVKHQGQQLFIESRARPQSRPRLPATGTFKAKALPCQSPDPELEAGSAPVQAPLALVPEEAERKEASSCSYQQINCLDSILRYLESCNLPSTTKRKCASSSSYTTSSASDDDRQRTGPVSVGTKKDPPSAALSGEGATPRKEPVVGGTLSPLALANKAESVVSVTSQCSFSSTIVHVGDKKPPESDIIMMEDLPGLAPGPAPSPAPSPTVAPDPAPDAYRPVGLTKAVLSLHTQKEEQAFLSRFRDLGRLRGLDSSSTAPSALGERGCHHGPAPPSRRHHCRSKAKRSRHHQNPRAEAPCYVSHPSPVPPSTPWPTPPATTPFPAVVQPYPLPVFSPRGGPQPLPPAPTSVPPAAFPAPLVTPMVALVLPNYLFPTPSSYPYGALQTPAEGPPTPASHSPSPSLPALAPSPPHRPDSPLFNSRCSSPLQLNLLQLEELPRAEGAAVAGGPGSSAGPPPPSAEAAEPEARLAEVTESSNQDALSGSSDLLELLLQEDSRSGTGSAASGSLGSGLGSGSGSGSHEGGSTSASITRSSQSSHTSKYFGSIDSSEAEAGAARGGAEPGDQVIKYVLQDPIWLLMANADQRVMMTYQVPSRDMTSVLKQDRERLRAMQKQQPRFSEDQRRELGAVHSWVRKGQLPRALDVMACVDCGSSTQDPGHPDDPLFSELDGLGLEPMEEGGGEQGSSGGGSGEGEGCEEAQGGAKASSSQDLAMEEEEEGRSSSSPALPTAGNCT
UniProt P49674: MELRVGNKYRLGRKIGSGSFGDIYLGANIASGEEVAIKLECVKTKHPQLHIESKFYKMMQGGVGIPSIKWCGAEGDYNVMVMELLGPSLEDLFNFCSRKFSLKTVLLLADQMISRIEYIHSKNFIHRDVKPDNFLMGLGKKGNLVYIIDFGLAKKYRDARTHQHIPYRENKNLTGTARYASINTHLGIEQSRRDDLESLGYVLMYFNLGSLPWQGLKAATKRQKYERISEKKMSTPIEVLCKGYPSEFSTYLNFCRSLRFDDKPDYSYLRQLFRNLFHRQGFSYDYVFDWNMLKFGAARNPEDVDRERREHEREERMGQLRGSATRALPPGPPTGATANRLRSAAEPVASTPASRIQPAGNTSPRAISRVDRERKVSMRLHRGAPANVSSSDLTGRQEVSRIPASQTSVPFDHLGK
HA-tagged hCKIε (human casein kinase I ε, wild type, expressed from pCEP4-CKIε in 293T cells) (P49674, form named): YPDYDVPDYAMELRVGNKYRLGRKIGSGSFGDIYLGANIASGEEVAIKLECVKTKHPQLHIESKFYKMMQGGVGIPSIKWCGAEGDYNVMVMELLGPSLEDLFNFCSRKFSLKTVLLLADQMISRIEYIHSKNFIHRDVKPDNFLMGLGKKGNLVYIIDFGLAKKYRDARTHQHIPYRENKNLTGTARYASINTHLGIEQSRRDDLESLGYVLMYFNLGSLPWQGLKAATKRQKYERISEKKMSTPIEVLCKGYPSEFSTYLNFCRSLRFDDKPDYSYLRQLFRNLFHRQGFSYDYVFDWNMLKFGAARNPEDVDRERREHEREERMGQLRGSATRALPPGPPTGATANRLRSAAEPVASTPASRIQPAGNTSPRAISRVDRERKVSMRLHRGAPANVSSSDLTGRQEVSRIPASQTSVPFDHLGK

Legend:
[1] = molecular target: Flag-tagged hPER1 (human Period 1, full-length open reading frame, amino acids 1 to 1289) (human) (UniProt O15534); assay: HA immunoprecipitation and Western blot, co-transfected 293T cells
[2] = molecular target: Flag-tagged hPER1 (human Period 1, full-length open reading frame, amino acids 1 to 1289) (human) (UniProt O15534); assay: co-immunoprecipitation from 293T cells
[3] = molecular target: Flag-tagged hPER1 (human Period 1, full-length open reading frame, amino acids 1 to 1289) (human) (UniProt O15534); assay: co-immunoprecipitation from co-transfected 293T cells
[4] = molecular target: Flag-tagged hPER1 (human Period 1, full-length open reading frame, amino acids 1 to 1289) (human) (UniProt O15534); assay: co-immunoprecipitation from co-transfected 293T cells (anti-Flag IP / anti-HA blot and anti-HA IP / anti-Flag blot)
[5] = molecular target: Flag-tagged hPER1 (human Period 1, full-length open reading frame, amino acids 1 to 1289) (human) (UniProt O15534); assay: co-immunoprecipitation from 293T cells transfected with hPER1 only (anti-Flag IP / anti-hCKIε blot and anti-hCKIε IP / anti-Flag blot)

binding [5] | Substance | binding [1] | binding [2] | binding [3] | binding [4]
– | HA-tagged hCKIε (human casein kinase I ε, wild type, expressed from pCEP4-CKIε in 293T cells) (from UniProt P49674 1-416) (enzyme) | binds | binds | binds | binds
binds | endogenous hCKIε of 293T cells (from UniProt P49674 1-416) (enzyme) | – | binds | – | –
